Experimental data published in PMC7819943, “Rice protein-binding microarrays: a tool to detect cis-acting elements near promoter regions in rice”.
This is one part of the list.

Chains of the proteins cited; added tags and fusions are not shown.
UniProt Q0JBA9, entry or part of it: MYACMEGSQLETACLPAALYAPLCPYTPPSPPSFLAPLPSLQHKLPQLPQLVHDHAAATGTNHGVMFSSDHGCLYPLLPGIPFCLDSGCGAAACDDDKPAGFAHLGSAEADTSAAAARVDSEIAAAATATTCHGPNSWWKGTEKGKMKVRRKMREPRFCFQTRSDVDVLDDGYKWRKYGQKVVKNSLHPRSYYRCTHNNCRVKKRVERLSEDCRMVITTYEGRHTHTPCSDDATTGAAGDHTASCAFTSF

Target: OsWRKY34 (Oryza sativa, UniProt Q0JBA9 1-250)
Test: protein-binding microarray (RPBM); PBS, 2% BSA, 51.3 ng/ul salmon testes DNA, 50 uM zinc acetate, 200 nM TF, 25 C, 1 h; high values mean tight binding
Details: protein: recombinant; tags: N-terminal polyhistidine and DsRed monomer fusion (pET32a); label: CyDye5-dUTP incorporated in the synthesized complementary strand; 3' TTTTT single-stranded linker to array surface; dsDNA, one strand shown
Outline: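 The binding signal is fluorescence intensity per array feature (arbitrary units). Readings came from an Axon 4000B scanner after a washed, 2% BSA-blocked, double-stranded custom Agilent array had been incubated for 1 h at 25 °C with 200 nM protein and 50 µM zinc acetate. The protein was a Ni–NTA-purified transcription factor fused N-terminally to polyhistidine and DsRed, expressed in E. coli BL21-CodonPlus.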

| Sequence | binding signal |
| --- | --- |
| CATTACCGCCACCTTCGATGCCGCCGCCTGCCGCTACCCGCGGAGTCACCTAGTGCAG | 8580 fluorescence intensity (a.u.) |
| GCCCACTTGTATATCTCCCGCGCGCCACCACCACCATCGCCGGAGTCACCTAGTGCAG | 12600 fluorescence intensity (a.u.) |
| CCAACTTTTCCGTCACATCGTTTCAATTTTAACCAAACTTCGGAGTCACCTAGTGCAG | 8170 fluorescence intensity (a.u.) |
| TCACATTGTTCCTTTCCTCCAATGTTTTGTTTCATCAACTCGGAGTCACCTAGTGCAG | 8350 fluorescence intensity (a.u.) |
| TTCCCATTTATTGGCATCCACCTACCGCTCATCATCTTCTCGGAGTCACCTAGTGCAG | 8640 fluorescence intensity (a.u.) |
| CTTGGGGCTGTTTCTGTTTGATACCAAATAACCAAAACTTCGGAGTCACCTAGTGCAG | 8600 fluorescence intensity (a.u.) |
| ATATAACATATACAGAGACCATGTTTGTTTCTTTTTTTTTCGGAGTCACCTAGTGCAG | 8440 fluorescence intensity (a.u.) |
| ATGCCTCACCACACCCTTGTTCCTCTCCTCCCAACAATTTCGGAGTCACCTAGTGCAG | 8640 fluorescence intensity (a.u.) |
| CTCGCAATTTTTCCCCATCACCACAGCACCACTAGACGACCGGAGTCACCTAGTGCAG | 9600 fluorescence intensity (a.u.) |
| CCAGATCGGTAGCTGTCTCGTCGCCGTCCCCGATCCTCCTCGGAGTCACCTAGTGCAG | 8260 fluorescence intensity (a.u.) |
| GAGATGCCTTTTTTAAAAAACTTTAACAGTGATAAGTTTCCGGAGTCACCTAGTGCAG | 8240 fluorescence intensity (a.u.) |
| GTCGCCGATTTTATAAAACTTCATCTTCTCCGAGACCTTACGGAGTCACCTAGTGCAG | 8120 fluorescence intensity (a.u.) |
| AAGAAAGGCAGAAACAAAGCGGTTGCATCATTCTTTAACTCGGAGTCACCTAGTGCAG | 8270 fluorescence intensity (a.u.) |
| AATTCCTACTTTCATGTTCAGTGTTTTTAATGGTCTATGTCGGAGTCACCTAGTGCAG | 10800 fluorescence intensity (a.u.) |
| CACCTTACCCCGCGCGCTCTCGCCAGTAGTAGTCCACCTCCGGAGTCACCTAGTGCAG | 9660 fluorescence intensity (a.u.) |
| TCAGTTAATTGGTTTGAATCTTCTCTTCTCCTCCGTTTCCCGGAGTCACCTAGTGCAG | 9050 fluorescence intensity (a.u.) |
| CACTTACCCCGCACCACATCGCCACCCAGGTAAACCCCGGCGGAGTCACCTAGTGCAG | 8730 fluorescence intensity (a.u.) |
| TCCAGTATTCCGGTCAGCCTTCATCAATCATCATCCCTTCCGGAGTCACCTAGTGCAG | 9680 fluorescence intensity (a.u.) |
| ATGGATAATAAAGTATTGTTTCATTCTAGTACTTTTTTATCGGAGTCACCTAGTGCAG | 12000 fluorescence intensity (a.u.) |
| TTTTGAGTTTTTCTTACAACGTTTGACCACTCGTCTTATTCGGAGTCACCTAGTGCAG | 8390 fluorescence intensity (a.u.) |
| ATATATTGATTCATACTCCCTCCGTTTCAGTCACTCGGTTCGGAGTCACCTAGTGCAG | 8270 fluorescence intensity (a.u.) |

| Sequence | binding signal |
| --- | --- |
| GCCGCGCGCCGCCGAGGCCGTCCTCCGCACCCACGACCTCCGGAGTCACCTAGTGCAG | 8600 fluorescence intensity (a.u.) |
| CACTACCCACATCGTCTCGCCGCCGTCGCCGCCGCCGGCGCGGAGTCACCTAGTGCAG | 8780 fluorescence intensity (a.u.) |
| GTGGTGTCAGTTTTTGTGATGGATATTTGTGTGAACTTTTCGGAGTCACCTAGTGCAG | 11300 fluorescence intensity (a.u.) |
| TATACACACCTCGAGTTATGGCCATACCATCACAAGCTGACGGAGTCACCTAGTGCAG | 8270 fluorescence intensity (a.u.) |
| ACACAAGGCTCACCATGCATCAACCTCACGTGGGGTCCAACGGAGTCACCTAGTGCAG | 10100 fluorescence intensity (a.u.) |
| ACCTACCGGTCCAATTTACCTCTTCATGTAAACGTCTACTCGGAGTCACCTAGTGCAG | 8630 fluorescence intensity (a.u.) |
| TATTGTACTCAGACGTTCAATTCCCAAGTTCTTGCACTATCGGAGTCACCTAGTGCAG | 8070 fluorescence intensity (a.u.) |
| AAATAATTTCTATCCTGACGCGACTATAAATCGGACGTCCCGGAGTCACCTAGTGCAG | 8460 fluorescence intensity (a.u.) |
| AGCATCACGTCATCGTCATCGTCTTCAACACGTCCTCGCTCGGAGTCACCTAGTGCAG | 9460 fluorescence intensity (a.u.) |
| ATAAATTGTAGCTTGTGACTTTTCACTAATTCTCACGTATCGGAGTCACCTAGTGCAG | 9250 fluorescence intensity (a.u.) |
| CATTATTATAAGACGCTTGACTTTTTTTTGGTCAAAATCCCGGAGTCACCTAGTGCAG | 8730 fluorescence intensity (a.u.) |
| TCCGCCTCCGCCTCCGCCTCCGCGATCCGCCTCCGCCTCGCGGAGTCACCTAGTGCAG | 9600 fluorescence intensity (a.u.) |
| ATCCATTTCCAGCTTCGTCTTCATCTTGGCTTGGCGCGCTCGGAGTCACCTAGTGCAG | 17800 fluorescence intensity (a.u.) |
| GGCGAAATTTTCTCTACTGCTCGCTTACAATCTCAGTAGTCGGAGTCACCTAGTGCAG | 12300 fluorescence intensity (a.u.) |
| GCCCGTACCCCTCTCCCACCACTCCATCCTGGCCGTCCGACGGAGTCACCTAGTGCAG | 9950 fluorescence intensity (a.u.) |
| AATCTTCTATTTTACACTTTTATTTATGTCAGAATCATATCGGAGTCACCTAGTGCAG | 9380 fluorescence intensity (a.u.) |
| CTGATCATGACTTCCCGATTTGTGTCTCTTCTTTTTTCGCCGGAGTCACCTAGTGCAG | 10600 fluorescence intensity (a.u.) |
| CCGGACAACTCGACCGACCATGGCTCGAGCATCACAACTTCGGAGTCACCTAGTGCAG | 8390 fluorescence intensity (a.u.) |
| AGTTGATCGTGGCGAGGTGTTTTACAATTGTCTCTATCCGCGGAGTCACCTAGTGCAG | 8790 fluorescence intensity (a.u.) |
| GACCCCTGTGATCCCAATTAACCACCCGCCACCGCCACGCCGGAGTCACCTAGTGCAG | 8150 fluorescence intensity (a.u.) |
| ACTCCGTGATCACCACATTTTATTCTAGCGAGCATGTGACCGGAGTCACCTAGTGCAG | 8310 fluorescence intensity (a.u.) |

Some of the entries so far, tab-delimited.
Sequence	binding signal
AGCATCACGTCATCGTCATCGTCTTCAACACGTCCTCGCTCGGAGTCACCTAGTGCAG	9460 fluorescence intensity (a.u.)
ATAAATTGTAGCTTGTGACTTTTCACTAATTCTCACGTATCGGAGTCACCTAGTGCAG	9250 fluorescence intensity (a.u.)
CATTATTATAAGACGCTTGACTTTTTTTTGGTCAAAATCCCGGAGTCACCTAGTGCAG	8730 fluorescence intensity (a.u.)
TCCGCCTCCGCCTCCGCCTCCGCGATCCGCCTCCGCCTCGCGGAGTCACCTAGTGCAG	9600 fluorescence intensity (a.u.)
ATCCATTTCCAGCTTCGTCTTCATCTTGGCTTGGCGCGCTCGGAGTCACCTAGTGCAG	17800 fluorescence intensity (a.u.)
GGCGAAATTTTCTCTACTGCTCGCTTACAATCTCAGTAGTCGGAGTCACCTAGTGCAG	12300 fluorescence intensity (a.u.)
GCCCGTACCCCTCTCCCACCACTCCATCCTGGCCGTCCGACGGAGTCACCTAGTGCAG	9950 fluorescence intensity (a.u.)
AATCTTCTATTTTACACTTTTATTTATGTCAGAATCATATCGGAGTCACCTAGTGCAG	9380 fluorescence intensity (a.u.)
CTGATCATGACTTCCCGATTTGTGTCTCTTCTTTTTTCGCCGGAGTCACCTAGTGCAG	10600 fluorescence intensity (a.u.)
CCGGACAACTCGACCGACCATGGCTCGAGCATCACAACTTCGGAGTCACCTAGTGCAG	8390 fluorescence intensity (a.u.)
AGTTGATCGTGGCGAGGTGTTTTACAATTGTCTCTATCCGCGGAGTCACCTAGTGCAG	8790 fluorescence intensity (a.u.)
